Experimental findings from article doi:10.1101/2020.07.20.211441 are described below.

The chains behind the UniProt entries cited, without tags or fusion partners.
UniProt Q64267: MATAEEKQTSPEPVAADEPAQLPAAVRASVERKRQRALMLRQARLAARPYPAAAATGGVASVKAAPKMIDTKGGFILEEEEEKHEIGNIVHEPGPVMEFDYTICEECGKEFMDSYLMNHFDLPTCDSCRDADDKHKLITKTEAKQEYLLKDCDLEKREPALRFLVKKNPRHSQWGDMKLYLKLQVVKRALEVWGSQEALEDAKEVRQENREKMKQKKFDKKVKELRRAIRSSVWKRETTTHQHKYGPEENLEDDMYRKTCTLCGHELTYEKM
UniProt Q99KP6: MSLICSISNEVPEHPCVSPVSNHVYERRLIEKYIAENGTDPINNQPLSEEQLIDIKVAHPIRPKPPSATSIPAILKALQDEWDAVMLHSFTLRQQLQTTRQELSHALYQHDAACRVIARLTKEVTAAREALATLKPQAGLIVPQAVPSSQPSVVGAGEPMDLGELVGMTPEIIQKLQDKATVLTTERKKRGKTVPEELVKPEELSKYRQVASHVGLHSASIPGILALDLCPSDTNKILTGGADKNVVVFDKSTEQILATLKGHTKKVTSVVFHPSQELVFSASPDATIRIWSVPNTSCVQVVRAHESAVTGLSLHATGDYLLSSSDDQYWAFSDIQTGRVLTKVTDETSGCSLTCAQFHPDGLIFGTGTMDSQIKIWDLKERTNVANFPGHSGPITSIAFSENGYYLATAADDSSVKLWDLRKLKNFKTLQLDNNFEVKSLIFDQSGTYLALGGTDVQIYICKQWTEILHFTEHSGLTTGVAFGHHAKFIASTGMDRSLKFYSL

Common to all, as to test: pull-down
In experiment [1] the target is T1, XPA-binding protein (XAB)-2, biotin-tagged knock-in (mouse) (UniProt Q9DCD2).
T1 sequence (chain, biotin on the Avitag (by the BirA ligase in vivo)): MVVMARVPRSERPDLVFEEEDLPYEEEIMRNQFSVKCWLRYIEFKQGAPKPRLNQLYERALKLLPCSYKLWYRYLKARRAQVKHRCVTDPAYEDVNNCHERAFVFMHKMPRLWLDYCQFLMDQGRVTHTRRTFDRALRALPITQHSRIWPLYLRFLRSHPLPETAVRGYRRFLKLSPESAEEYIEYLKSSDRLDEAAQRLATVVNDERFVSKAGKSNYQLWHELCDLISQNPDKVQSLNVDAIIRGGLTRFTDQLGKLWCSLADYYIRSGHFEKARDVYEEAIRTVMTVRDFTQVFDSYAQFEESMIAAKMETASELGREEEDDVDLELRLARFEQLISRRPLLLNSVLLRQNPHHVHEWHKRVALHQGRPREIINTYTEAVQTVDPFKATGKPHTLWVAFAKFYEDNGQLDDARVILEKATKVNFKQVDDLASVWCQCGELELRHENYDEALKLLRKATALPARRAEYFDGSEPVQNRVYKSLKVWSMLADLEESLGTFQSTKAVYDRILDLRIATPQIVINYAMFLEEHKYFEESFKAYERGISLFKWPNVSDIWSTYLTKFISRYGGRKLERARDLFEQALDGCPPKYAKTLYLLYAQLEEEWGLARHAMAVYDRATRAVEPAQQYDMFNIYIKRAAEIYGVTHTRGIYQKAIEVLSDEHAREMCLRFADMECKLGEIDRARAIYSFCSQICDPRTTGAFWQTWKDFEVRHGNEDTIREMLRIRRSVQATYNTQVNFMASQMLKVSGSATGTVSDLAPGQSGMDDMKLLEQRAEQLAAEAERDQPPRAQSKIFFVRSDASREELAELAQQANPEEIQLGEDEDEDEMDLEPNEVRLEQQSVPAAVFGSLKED

Experiment [2] deals with T1, XPA-binding protein (XAB)-2, biotin-tagged knock-in (mouse). The source holds these as a separate data set.
The target is the same in experiment [3]. This is another data set of the same source.
Experiment [4] shares this target. The source holds these as a separate data set.

Like-named read-outs stand apart in the source and are kept apart here. These are yes or no findings as the source states them, for the method shown. Binding seen in cells or lysates may run through a third protein. Some entries that bind do so weakly or less than the wild type. Where a sequence is shown, tags or fusion partners need not be part of it.

As to “xeroderma pigmentosum, complementation group A protein (from UniProt Q64267 1-272)”, the binding entry in experiment [1] was “binds”. With “pre-mRNA-processing factor 19 (from UniProt Q99KP6 1-504)”, the binding result in experiment [2], in experiment [3] and in experiment [1] was “binds” each time.

B1: Aquarius (protein, UniProt Q8CFQ3 1-1481)
chain: MAAPAQPKKIVAPTVSQINAEFVTQLACKYWAPHIKKKSPFDIKVIEEIYEKEIVKSRFAIRKIMLLEFSQYLENYLWMNYSPEVSSKAYLMSICCMVNEKFRENVPAWETFKKKPDHFPFFFKCILKAALAETDGEFSLHEQTLLLLFLDHCFNSLEVDLIRSQVQQLISLPMWMGLQPARLELELKKTPKLRKFWNLIKKNDEKMDPEAREQAYQERRFLSRLIQKFISVLKSIPLSEPVTMDKVHYCERFIELMIDLEALLPTRRWFNTILDDSHLLVHCYLSSLVHREEDGHLFSQLLDMLKFYTGFEINDQTGNALTENEMTTIHYDRITSLQRAAFAHFPELYDFALSNVAEVDARDSLVKFFGPLSSNTLHQVASYLCLLPTLPKNEDTTFDKEFLLELLVSRHERRISQIQQLNQMPLYPTEKIIWDENIVPTEYYSGEGCLALPKLNLQFLTLHDYLLRNFNLFRLESTYEIRQDIEDSVSRMKPWQSEYGGVVFGGWARMAQPIVAFTVVEVAKPNIGENWPTRVRADVTINLNVRDHIKDEWEGLRKHDVCFLITVRPTKPYGTKFDRRRPFIEQVGLVYVRGCEIQGMLDDKGRVIEDGPEPRPNLRGESRTFRVFLDPNQYQQDMTNTIQNGAEDVYDTFNVIMRRKPKENNFKAVLETIRNLMNTDCVVPDWLHDIILGYGDPSSAHYSKMPNQIATLDFNDTFLSIEHLKASFPGHNVKVTVSDPALQIPPFRITFPVRSGKGKKRKDADGEEDDTEEAKTLIVEPHVIPNRGPYPYNQPKRNTIQFTHTQIEAIRAGMQPGLTMVVGPPGTGKTDVAVQIISNIYHNFPEQRTLIVTHSNQALNQLFEKIMALDIDERHLLRLGHGEEELETEKDFSRYGRVNYVLARRIELLEEVKRLQKSLGVPGDASYTCETAGYFFLYQVMSRWEEYMSRVKNSGTACPDAAPDAAQVATFFPFHEYFANAPQPIFKGRSYEEDMEIAEGCFRHIKKIFTQLEEFRASELLRSGLDRSKYLLVKEAKIIAMTCTHAALKRHDLVKLGFKYDNILMEEAAQILEIETFIPLLLQNPQDGFSRLKRWIMIGDHHQLPPVIKNMAFQKYSNMEQSLFTRFVRVGVPTVDLDAQGRARASLCNLYNWRYKNLGNLPHVQLLPEFSTANAGLLYDFQLINVEDFQGVGESEPNPYFYQNLGEAEYVVALFMYMCLLGYPADKISILTTYNGQKHLIRDIINRRCGNNPLIGRPNKVTTVDRFQGQQNDYILLSLVRTRAVGHLRDVRRLVVAMSRARLGLYIFARVSLFQNCFELTPAFSQLTARPLHLHIIPTEPFPTSRKNGERPPHEVQVIKNMPQMANFVYNMYMHLIQTTHHYHQTFLQLPPAMVEEGEEGQSQETEMEAEEETVSAQGNLTPSPADASLSQETPAAQPDCSSQTEDTSAPCDIATAAEPVSAAAEAATPQDAESVPTETE
With B1, in experiment [4], the binding entry is listed as “binds”.

B2: XPG endonuclease (protein, UniProt P35689 1-1170)
chain: MGVQGLWKLLECSGHRVSPEALEGKVLAVDISIWLNQALKGVRDSHGNVIENAHLLTLFHRLCKLLFFRIRPIFVFDGDAPLLKKQTLAKRRQRKDSASIDSRKTTEKLLKTFLKRQALKTAFRSSRHEAPPSLTQVQRQDDIYVLPPLPEEEKHSSEEEDEKQWQARMDQKQALQEEFFHNPQAIDIESEDFSSLPPEVKHEILTDMKEFTKRRRTLFEAMPEESNDFSQYQLKGLLKKNYLNQHIENVQKEMNQQHSGQIQRQYQDEGGFLKEVESRRVVSEDTSHYILIKGIQGKKVMDVDSESLPSSSNVHSVSSNLKSSPHEKVKPEREPEAAPPSPRTLLAIQAAMLGSSSEDEPESREGRQSKERNSGATADAGSISPRTCAAIQKALDDDNDEKVSGSSDDLAEKMLLGSGLEQEEHADETAERGGGVPFDTAPLTPSVTEVKECVTSGSSANGQTDSAHSFTTASHRCDTPKETVSLARAVKEASQISSECEVEGRPAALSPAFIGTPSSHVSGVLSEREPTLAPPTTRTHSDQGIDIHPEDPELQNGLYPLETKCNSSRLSSDDETEGGQNPAPKACSTVHVPAEAMSNLENALPSNAEERGDFQETIQLREVPEAAARELISAPKPMGPMEMESEESESDGSFIEVQSVVSNSELQTESSEASTHLSEKDAEEPRETLEEGTSRDTECLLQDSSDIEAMEGHREADIDAEDMPNEWQDINLEELDALESNLLAEQNSLKAQKQQQDRIAASVTGQMFLESQELLRLFGVPYIQAPMEAEAQCAMLDLTDQTSGTITDDSDIWLFGARHVYKNFFNKNKFVEYYQYVDFYSQLGLDRNKLINLAYLLGSDYTEGIPTVGCVTAMEILNEFPGRGLDPLLKFSEWWHEAQNNKKVAENPYDTKVKKKLRKLQLTPGFPNPAVADAYLRPVVDDSRGSFLWGKPDVDKISTFCQRYFGWNRMKTDESLYPVLKHLNAHQTQLRIDSFFRLAQQEKQDAKLIKSHRLNRAVTCILRKEREEKAPELTKVTEALDDAKGKTQKRELPYKKETSVPKRRRPSGNGGFLGDPYCSESPQESSCEDGEGSSVMSARQRSAAESSKISCSDVPDLVRDPPHGRQGCVSTSSSSEDDEDKAKTVLVTARPVFGKKKLKLKSMKRRKKKT
B2: the binding result in experiment [4] is recorded as “binds”.

B3: SNRP40 (protein, UniProt Q6PE01 1-358)
chain: MIEQQKRKGPELPLVPVKRPRHELLLGAAGAGPGAGPQQATPGALLQAGPPRCSSLQAPIMLLSGHEGEVYCCKFHPNGSTLASAGFDRLILLWNVYGDCDNYATLKGHSGAVMELHYNTDGSMLFSASTDKTVAVWDSETGERVKRLKGHTSFVNSCYPARRGPQLVCTGSDDGTVKLWDIRKKAAVQTFQNTYQVLAVTFNDTSDQIISGGIDNDIKVWDLRQNKLTYTMRGHADSVTGLSLSSEGSYLLSNAMDNTVRVWDVRPFAPKERCVKIFQGNVHNFEKNLLRCSWSPDGSKIAAGSADRFVYVWDTTSRRVLYKLPGHAGSINEVAFHPDEPIILSASSDKRLYMGEIQ
As to B3, the binding entry in experiment [3] was “binds”.

B4: BCAS2 (protein, UniProt Q9D287 1-225)
chain: MAGTGLVAGEVVVDALPYFDQGYEAPGVREAAAALVEEETRRYRPTKNYLSYLTAPDYSAFETDIMRNEFERLAARQPIELLSMKRYELPAPSSGQKNDITAWQECVNNSMAQLEHQAVRIENLELMSQHGCNAWKVYNENLVHMIEHAQKELQKLRKHIQDLNWQRKNMQLTAGSKLREMESNWVSLVSKNYEIERTIVQLENEIYQIKQQHGEANKENIRQDF
Turning to B4, the binding result in experiment [3] and in experiment [4] was “binds” throughout.

B5: ERCC1-XPF endonuclease (complex, UniProt Q9QZD4 1-917; P07903 1-298)
chain 1: MEPGLSGERRSMAPLLEYERQQVLELLDSDGLVVCARGLGTDRLLYHFLRLHCHPACLVLVLNTQPAEEEYFINQLKIEGVEHLPRRVTNEIASNSRYEVYTQGGIIFATSRILVVDFLTGRIPSDLITGILVYRAHRIIESCQEAFILRLFRQKNKRGFIKAFTDNAVAFDTGFCHVERVMRNLFVRKLYLWPRFHVAVNSFLEQHKPEVVEIHVSMTPAMLAIQTAILDILNACLKELKCHNPSLEVEDLSLENALGKPFDKTIRHYLDPLWHQLGAKTKSLVQDLKILRTLLQYLSQYDCVTFLNLLESLRATEKVFGQNSGWLFLDASTSMFVNARARVYRVPDVKLNKKAKTSEKTSSPEVQETKKELVLESNPKWEALTDVLKEIEAENKESEALGGPGRVLICASDDRTCCQLRDYLSAGAETFLLRLYRKTFEKDGKAEEVWVNVRKGDGPKRTTKSDKRPKAAPNKERASAKRGAPLKRKKQELTLTQVLGSAEEPPEDKALEEDLCRQTSSSPEGCGVEIKRESFDLNVSSDAAYGILKEPLTIIHPLLGCSDPYALTRVLHEVEPRYVVLYDAELTFVRQLEIYRASRPGKPLRVYFLIYGGSTEEQRYLTALRKEKEAFEKLIREKASMVVPEEREGRDETNLDLARGSAALDAPTDTRKAGGQEQNGTQSSIVVDMREFRSELPSLIHRRGIDIEPVTLEVGDYILTPELCVERKSVSDLIGSLHSGRLYSQCLAMSRYYRRPVLLIEFDPSKPFSLAPRGAFFQEMSSSDVSSKLTLLTLHFPRLRLLWCPSPHATAELFEELKQNKPQPDAATAMAITADSETLPESDRYNPGPQDFVLKMPGVNAKNCRSLMNQVKNIAELATLSLERLTTILGHSGNAKQLHDFLHTAYADLVSKGRVRK
chain 2: MDPGKDEESRPQPSGPPTRRKFVIPLEEEEVPCAGVKPLFRSSRNPTIPATSAHVAPQTYAEYAITQPPGGAGATVPTGSEPAAGENPSQTLKTGAKSNSIIVSPRQRGNPVLKFVRNVPWEFGEVIPDYVLGQSTCALFLSLRYHNLHPDYIHERLQSLGKNFALRVLLVQVDVKDPQQALKELAKMCILADCTLVLAWSAEEAGRYLETYKAYEQKPADLLMEKLEQNFLSRATECLTTVKSVNKTDSQTLLATFGSLEQLFTASREDLALCPGLGPQKARRLFEVLHEPFLKVPR
For the molecule B5, the binding entry in experiment [4] is reported as “binds”.
